Data source: PubChem BioAssay AID1259308 (NCATS, 2017)
The deposit covers about 59,000 reagents; shown is a random part of them. About 1,510 of all reagents (2.6%) count as active. 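Calls use total luciferase alone and ignore viability, so some active siRNAs may act by altering cell number.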 Unmarked entries are inactive. The numbers tell different reagents against one gene apart. Not all columns of the deposit are shown.

Screen: 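Genes whose loss raises luciferase production in HEK293 cells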 (primary screen)
Cells: human HEK293 embryonic kidney cells stably expressing firefly luciferase (HEK-CMV-Luc2-Hygro)
Reagents: single siRNA against human genes, 0.8 pmol siRNA per well
Time to read-out: 72 h
Measurement: 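Reporter luminescence and viable-cell signal on separate replicate plates, given as percent of non-targeting control and median/MAD z-scores, plus per-cell luciferase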
Direction: total luciferase, z-score and total luciferase, % of control: higher = more reporter protein produced
Hit rule: 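An siRNA counts as active if its total luciferase robust z-score exceeds 3; genes with two or more such siRNAs out of three were retested with fresh siRNAs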
Meaning of the calls: active = raised luciferase; inactive = no rise

What did the screen give for MIR7-3HG (MIR7-3 host gene) #1?
total luciferase, z-score: -0.276; total luciferase, % of control: 76.4

For MIR7-3HG (MIR7-3 host gene) #2, what was measured?
total luciferase, z-score: -0.413; total luciferase, % of control: 73.7

How did the screen score MIR7-3HG (MIR7-3 host gene) #3?
total luciferase, z-score: 0.238; total luciferase, % of control: 86.6

Which result is listed for SULT6B1 (sulfotransferase family 6B member 1) #1?
total luciferase, z-score: -1.42; total luciferase, % of control: 53.6

What is on record for SULT6B1 (sulfotransferase family 6B member 1) #2?
total luciferase, z-score: -0.139; total luciferase, % of control: 79.1

What did the screen give for SULT6B1 (sulfotransferase family 6B member 1) #3?
total luciferase, z-score: 1.53; total luciferase, % of control: 112

What is on record for PTPRD (protein tyrosine phosphatase receptor type D) #1?
total luciferase, z-score: 1.23; total luciferase, % of control: 106

What is on record for PTPRD (protein tyrosine phosphatase receptor type D) #2?
total luciferase, z-score: 0.605; total luciferase, % of control: 93.9

How did the screen score PTPRD (protein tyrosine phosphatase receptor type D) #3?
total luciferase, z-score: 0.853; total luciferase, % of control: 98.9

For RPL35P1 (ribosomal protein L35 pseudogene 1) #1, how do the results read?
total luciferase, z-score: 0.868; total luciferase, % of control: 99.2

What did the screen give for RPL35P1 (ribosomal protein L35 pseudogene 1) #2?
total luciferase, z-score: -2.68; total luciferase, % of control: 28.6

How did the screen score RPL35P1 (ribosomal protein L35 pseudogene 1) #3?
total luciferase, z-score: 0.126; total luciferase, % of control: 84.4

What is on record for TLR10 (toll like receptor 10) #1?
total luciferase, z-score: 1.45; total luciferase, % of control: 111

What is on record for TLR10 (toll like receptor 10) #2?
total luciferase, z-score: -0.383; total luciferase, % of control: 74.3

With TLR10 (toll like receptor 10) #3, what does the deposit list?
total luciferase, z-score: -0.683; total luciferase, % of control: 68.3

What is on record for LY6G5B (lymphocyte antigen 6 family member G5B) #1?
total luciferase, z-score: -1.09; total luciferase, % of control: 60.3

What did the screen give for LY6G5B (lymphocyte antigen 6 family member G5B) #2?
total luciferase, z-score: -0.29; total luciferase, % of control: 76.1

What did the screen give for LY6G5B (lymphocyte antigen 6 family member G5B) #3?
total luciferase, z-score: -1.35; total luciferase, % of control: 55.1

Which result is listed for GPANK1 (G-patch domain and ankyrin repeats 1) #1?
total luciferase, z-score: 0.371; total luciferase, % of control: 89.3

How did the screen score GPANK1 (G-patch domain and ankyrin repeats 1) #2?
total luciferase, z-score: 0.602; total luciferase, % of control: 93.9

For GPANK1 (G-patch domain and ankyrin repeats 1) #3, how do the results read?
total luciferase, z-score: 0.443; total luciferase, % of control: 90.7

An excerpt from the list above, for reference:
RPL35P1 (ribosomal protein L35 pseudogene 1) #1: total luciferase, z-score = 0.868; total luciferase, % of control = 99.2
RPL35P1 (ribosomal protein L35 pseudogene 1) #2: total luciferase, z-score = -2.68; total luciferase, % of control = 28.6
RPL35P1 (ribosomal protein L35 pseudogene 1) #3: total luciferase, z-score = 0.126; total luciferase, % of control = 84.4
TLR10 (toll like receptor 10) #1: total luciferase, z-score = 1.45; total luciferase, % of control = 111

Continued:
Which result is listed for UBC (ubiquitin C) #1?
total luciferase, z-score: -3.72; total luciferase, % of control: 7.92

What did the screen give for UBC (ubiquitin C) #2?
total luciferase, z-score: 0.448; total luciferase, % of control: 90.8

With UBC (ubiquitin C) #3, how do the results read?
total luciferase, z-score: 1.56; total luciferase, % of control: 113

Which result is listed for KRT72 (keratin 72) #1?
total luciferase, z-score: 0.966; total luciferase, % of control: 101

With KRT72 (keratin 72) #2, what does the deposit list?
total luciferase, z-score: -0.86; total luciferase, % of control: 64.8

What is on record for KRT72 (keratin 72) #3?
total luciferase, z-score: 1.52; total luciferase, % of control: 112

With KRT71 (keratin 71) #1, what does the deposit list?
total luciferase, z-score: 3.01 (active); total luciferase, % of control: 142

How did the screen score KRT71 (keratin 71) #2?
total luciferase, z-score: 2.76; total luciferase, % of control: 137

With KRT71 (keratin 71) #3, what was measured?
total luciferase, z-score: -0.0687; total luciferase, % of control: 80.5

What is on record for ZNF821 (zinc finger protein 821) #1?
total luciferase, z-score: 0.84; total luciferase, % of control: 98.6

With ZNF821 (zinc finger protein 821) #2, what was measured?
total luciferase, z-score: -0.652; total luciferase, % of control: 68.9

Which result is listed for ZNF821 (zinc finger protein 821) #3?
total luciferase, z-score: 0.674; total luciferase, % of control: 95.3
